Measured values: paper PMC7067740
These are yes or no findings as the source states them, for the method shown. Binding seen in cells or lysates may run through a third protein. Some entries that bind do so weakly or less than the wild type. Where a sequence is shown, tags or fusion partners need not be part of it.

Molecular target: T1, endogenous NDRG2 (N-myc downstream regulated gene 2) (mouse (endogenous in cultured mouse astrocytes and mouse brain)) (UniProt Q9QYG0)
T1 sequence: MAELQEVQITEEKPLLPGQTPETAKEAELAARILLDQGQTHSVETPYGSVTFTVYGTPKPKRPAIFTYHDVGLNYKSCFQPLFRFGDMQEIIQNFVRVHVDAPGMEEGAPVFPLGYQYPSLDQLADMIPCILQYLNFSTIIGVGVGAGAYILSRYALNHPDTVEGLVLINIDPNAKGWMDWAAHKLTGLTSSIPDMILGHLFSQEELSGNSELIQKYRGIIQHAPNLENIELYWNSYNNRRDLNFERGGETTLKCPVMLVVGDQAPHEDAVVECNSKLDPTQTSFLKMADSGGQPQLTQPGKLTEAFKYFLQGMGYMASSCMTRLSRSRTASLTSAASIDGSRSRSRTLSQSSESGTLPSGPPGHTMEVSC
Assay: co-IP; synthetic TAT peptide added to cultured WT astrocytes for 2 h, read out as loss of the endogenous NDRG2-Na+/K+-ATPase β1 co-precipitate (competition); only the binder purified

TAT-β1(244–263) (from UniProt P14094 244-263) (peptide)
binding: binds
